{"source": "PubChem BioAssay AID1259424 – University of Nebraska Medical Center, 2018", "test": "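Rank knockdowns across the genome by resemblance to the KSR1 depletion profile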 (primary screen)", "cells": "human HCT116 colon cancer cells", "reagents": "siRNA pool against human genes, 50 nM", "measurement": "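Six signature mRNAs by branched-DNA multiplex assay, scaled to two housekeeping genes and non-targeting median, log2; matched to mean KSR1 knockdown profile by Pearson correlation and euclidean distance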", "scale": "mean correlation with KSR1 profile: higher = expression change more like KSR1 knockdown", "note": "The deposit covers about 14,000 reagents; this is a random part of them. 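Higher correlation or smaller distance means closer resemblance to KSR1 loss; control wells, including KSR1 knockdowns, recur on many plates.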 Not all columns of the deposit are shown. The record does not give: the time to read-out."}
{"gene symbol":"U2SURP (U2 snRNP associated SURP domain containing)","mean correlation with KSR1 profile":-0.0165}
{"gene symbol":"WNT7A (Wnt family member 7A)","mean correlation with KSR1 profile":0.179}
{"gene symbol":"ZNF606 (zinc finger protein 606)","mean correlation with KSR1 profile":0.212}
{"gene symbol":"HSBP1 (heat shock factor binding protein 1)","mean correlation with KSR1 profile":0.547}
{"gene symbol":"SGCB (sarcoglycan beta)","mean correlation with KSR1 profile":-0.539}
{"gene symbol":"DDX60 (DExD/H-box helicase 60)","mean correlation with KSR1 profile":0.356}
{"gene symbol":"CANX (calnexin)","mean correlation with KSR1 profile":0.417}
{"gene symbol":"REV3L (REV3 like, DNA directed polymerase zeta catalytic subunit)","mean correlation with KSR1 profile":0.709}
{"gene symbol":"ZNF154 (zinc finger protein 154)","mean correlation with KSR1 profile":-0.355}
{"gene symbol":"INPP4B (inositol polyphosphate-4-phosphatase type II B)","mean correlation with KSR1 profile":0.101}
{"gene symbol":"SELENOW (selenoprotein W)","mean correlation with KSR1 profile":0.33}
{"gene symbol":"APC2 (APC regulator of Wnt signaling pathway 2)","mean correlation with KSR1 profile":0.0453}
{"gene symbol":"TNFRSF8 (TNF receptor superfamily member 8)","mean correlation with KSR1 profile":0.377}
{"gene symbol":"OCM2 (oncomodulin 2)","mean correlation with KSR1 profile":0.212}
{"gene symbol":"UGCG (UDP-glucose ceramide glucosyltransferase)","mean correlation with KSR1 profile":0.193}
{"gene symbol":"USP44 (ubiquitin specific peptidase 44)","mean correlation with KSR1 profile":-0.0088}
{"gene symbol":"FSTL4 (follistatin like 4)","mean correlation with KSR1 profile":-0.0208}
{"gene symbol":"UPK3B (uroplakin 3B)","mean correlation with KSR1 profile":0.0941}
{"gene symbol":"DNAAF9 (dynein axonemal assembly factor 9)","mean correlation with KSR1 profile":-0.561}

Ordered by “mean correlation with KSR1 profile” (high to low): some entries from above
{"gene symbol":"UPK3B (uroplakin 3B)","mean correlation with KSR1 profile":0.0941}
{"gene symbol":"FSTL4 (follistatin like 4)","mean correlation with KSR1 profile":-0.0208}
